Results as given in PubChem BioAssay AID504467 (National Center for Advancing Translational Sciences (NCATS), 2011).
Hit rate of the full screen: of about 330,000 compounds, about 7,700 (2.3%) were called active. The inconclusive results got no clear call from the source; some entries with a clear call stand among them for comparison. Calls follow the shape of the dose curve; as a rule, active = well fitted inhibition curve with a large enough effect; inconclusive = small, poorly fitted or top-dose-only effect, or effect the other way; inactive = flat fitted curve, though single readings scatter. A potency beside an inconclusive call is a rough fit, not a confirmed value.

Test: qHTS screen for small molecules that inhibit ELG1-dependent DNA repair in human embryonic kidney (HEK293T) cells expressing luciferase-tagged ELG1; also: nearly all actives have a fitted effect of over 55% in size
Settings: HEK293T ELG1-luciferase reporter, luminescence, 16 h, DNA damage induced by 5-fluorouridine; activity change, negative = inhibition: at 46.1 µM (top of the series)
In short: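 Step one: seed 2,000 cells per well. Step two: pin-transfer compound or DMSO alongside 5-fluorouridine. Step three: incubate 16 hr, 37 °C, 5% CO2. Step four: add ONE-Glo, wait 30 min, read luminescence.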
% is scaled to controls: 0 for no effect and ±100 for the full control effect; potency is read from the fitted curve at half-maximal effect.

| Structure (SMILES) | activity change, negative = inhibition | Potency |
| --- | --- | --- |
| COCCCNC(=O)CSc1c2c(nc3ccc(Cl)cc13)CCCC2 | inactive: -7.85% | – |
| Cc1cc(=O)c2cc(Br)ccc2n1CC(=O)NCc1ccccc1 | inactive: -13.6% | – |
| CCN(c1ccc(OC)cc1)S(=O)(=O)c1nnc(NC(=O)c2ccccc2Cl)s1 | inactive: 2.02% | – |
| CCC(=O)N1CCc2cc(Br)cc(S(=O)(=O)N(C)c3ccc(OC)cc3OC)c21 | – | inconclusive: 29.1 µM [inhibitor, single point] |
| CNC(=O)c1nnsc1S(=O)c1ccc(Cl)cc1 (stereo not given) | – | inconclusive: 23.1 µM [activator, partial curve] |
| Cc1nc2c(C#N)c(C)[nH]n2c(=O)c1Cc1ccccc1 | inactive: -14.1% | – |
| CC1CN(S(=O)(=O)c2cccc(C(=O)OC/C(O)=C(\C#N)c3nc4ccccc4[nH]3)c2)CC(C)O1 (stereo not given) | – | inconclusive: 23.1 µM [inhibitor, partial curve, poor fit] |
| CCN1CCN(c2ncnc3c2cnn3-c2ccccc2)CC1 | – | inconclusive: 16.4 µM [activator, partial curve] |
| COc1ccc(C(C)(C)C)cc1NC(=O)COC(=O)c1cnc(C)cn1 | – | inconclusive: 0.259 µM [inhibitor, partial curve, poor fit] |
| Cc1ccc(C(=O)Nc2nc3ccc(S(C)(=O)=O)cc3s2)s1 | – | inconclusive: 2.59 µM [activator, partial curve] |
| Cc1ccccc1NC(=O)c1cccc(N2C(=O)C3CCCCC3C2=O)c1 (stereo not given) | inactive: 5.12% | – |
| COc1ccc(N(C(=O)c2snc(C(N)=O)c2N)C(C(=O)NC2CCCCC2)c2ccc(F)cc2)c(OC)c1 (stereo not given) | – | inconclusive: 29.1 µM [activator, single point] |
| CC(C)CNS(=O)(=O)c1cc(C(=O)OCC(=O)c2ccc3c(c2)OCCO3)c(Cl)cc1Cl | inactive: -1.78% | – |
| Oc1ccccc1N1CCN(c2ncnc3scc(-c4ccccc4)c23)CC1 | – | active: 18.3 µM |
| Cc1ccc(Cl)cc1N1CCN(CC(=O)Nc2ccc3[nH]c(=O)[nH]c3c2)CC1 | – | inconclusive: 29.1 µM [activator, single point] |
| C/C(=N/NC(N)=S)c1ccc(Br)s1 | inactive: -2.4% | – |
| CCS(=O)(=O)c1ccc2oc(SCC(=O)N3CCCCC3)nc2c1 | – | inconclusive: 23.1 µM [inhibitor, single point] |
| COc1cc(C)c(S(=O)(=O)NCCCn2ccnc2)cc1C | inactive: -11.3% | – |
| N#Cc1cc2c(nc1SCC(=O)N1CCCCC1)CCCC2 | inactive: 18% | – |
| Cc1cc(C)c(NC(=S)N(C)C)c(C)c1 | – | inconclusive: 29.1 µM [activator, single point] |
| CCC(C)NC(=O)c1csc2c1CCCCC2 (stereo not given) | – | inconclusive: 32.6 µM [activator, partial curve, poor fit] |
| Cc1cc(C(=O)CN(Cc2ccc(F)cc2)S(=O)(=O)c2ccc3c(c2)OCCO3)c(C)n1C | – | inconclusive: 29.1 µM [inhibitor, single point] |
| Cc1noc(C)c1COC(=O)c1ccc2ccccc2n1 | inactive: 1.25% | – |

| Structure (SMILES) | activity change, negative = inhibition | Potency |
| --- | --- | --- |
| Cc1cc2nc(-c3cccnc3SCC(=O)NC(C)C)[nH]c2cc1C | – | inconclusive: 8.2 µM [activator, partial curve] |
| CCN(CC(=O)Nc1c(F)cccc1F)C(=O)c1cc(S(=O)(=O)N(CC)CC)ccc1N1CCCCC1 | inactive: -10.5% | – |
| Cc1ccc(Cl)cc1NC(=O)COC(=O)CC(C)(C)C | – | inconclusive: 29.1 µM [inhibitor, single point] |
| CCOC(=O)c1c(NC(C)=O)sc2c(O)cccc12 | – | inconclusive: 16.4 µM [inhibitor, partial curve, poor fit] |
| CC(C)(C)C(=O)Nc1sc2c(c1C#N)CCN(Cc1ccccc1)C2 | inactive: 0.0032% | – |
| N/C(=N\O)c1ccc(NC(=O)c2cccs2)cc1 | – | inconclusive: 7.31 µM [activator, partial curve] |
| Cc1cccc(NC(=O)C2CCN(S(=O)(=O)c3ccc4c(c3)C(C)(C)C(=O)N4C)CC2)c1C | inactive: -7.19% | – |
| COc1ccc(NC(=O)COC(=O)CCc2ccccc2)c(OC)c1 | – | inconclusive: 5.17 µM [activator, partial curve, poor fit] |
| c1ccc(Cn2ncc3c(NCc4ccco4)ncnc32)cc1 | – | inconclusive: 0.411 µM [inhibitor, full curve, poor fit] |
| CCOc1cc(N2CCOCC2)c(OCC)cc1NC(=O)c1nn(CC)c(=O)c2ccccc12 | – | active: 2.31 µM |
| COc1ccc(C(c2nnnn2CCc2ccccc2)N2CCN(C3CCCC3)CC2)cc1 (stereo not given) | inconclusive: 24.4% [activator] | – |
| Cc1cc(C)n(-c2ccc(Cl)c(C(=O)OCC(=O)N3CCCCC3C)n2)n1 (stereo not given) | – | inconclusive: 20.6 µM [inhibitor, single point] |
| COC(=O)c1[nH]c2ccccc2c1NS(=O)(=O)c1ccc(OC)cc1OC | – | inconclusive: 23.1 µM [activator, partial curve, poor fit] |
| CC1=CC(C)C(/C=N/N=C(N)N)C(C)C1 (stereo not given) | – | active: 5.8 µM |
| Cc1nc(-c2cccc(NC(=O)C3CCCCC3)c2)cs1 | – | inconclusive: 16.4 µM [inhibitor, single point] |
| COc1ccc(C2CC(C(F)(F)F)n3nc(C(=O)O)c(Br)c3N2)cc1 (stereo not given) | inactive: 6.39% | – |
| Cc1cc(=O)[nH]c2sc(C(=O)N3c4ccccc4CC3C)c(N)c12 (stereo not given) | – | inconclusive: 23.1 µM [inhibitor, partial curve] |
| CSC1=N/C(=C\c2ccc(Cl)cc2)C(=O)N1N(C)C | inactive: -17.2% | – |
| COc1ccc(C(=O)N/N=C/c2ccc3cccc(O)c3n2)cc1 | – | inconclusive: 32.6 µM [inhibitor, partial curve, poor fit] |
| COc1ccc(C(=O)O/N=C(\N)Cc2ccc(Cl)cc2)cc1OC | – | inconclusive: 29.1 µM [inhibitor, single point] |
| O=C(Nc1cccc(S(=O)(=O)N2CCCC2)c1)c1cc(S(=O)(=O)N2CCOCC2)ccc1F | – | inconclusive: 25.9 µM [inhibitor, single point] |
| COc1cc(/C=C/C(=O)Nc2ccc(C(C)=O)cc2)cc(OC)c1OC | – | inconclusive: 29.1 µM [inhibitor, partial curve, poor fit] |

Retrieved one by one from the list above (three):

| Structure (SMILES) | activity change, negative = inhibition | Potency |
| --- | --- | --- |
| CCOc1cc(N2CCOCC2)c(OCC)cc1NC(=O)c1nn(CC)c(=O)c2ccccc12 | – | active: 2.31 µM |
| COc1ccc(NC(=O)COC(=O)CCc2ccccc2)c(OC)c1 | – | inconclusive: 5.17 µM [activator, partial curve, poor fit] |
| Cc1cc2nc(-c3cccnc3SCC(=O)NC(C)C)[nH]c2cc1C | – | inconclusive: 8.2 µM [activator, partial curve] |
